PubChem BioAssay AID1224830 | NIAID – 2016
The deposit covers about 18,000 reagents; below is an unselected part. About 2,900 of them (16%) were called active. 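Calls are made per well; low scores hint the gene aids the LPS response, high scores that it dampens it.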 Repeated entries: four replicate wells of each siRNA pool.

- Assay: 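Genes whose knock-down alters the TNF-alpha reporter response to LPS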 (primary screen)
- System: human THP-1 monocytic leukaemia cells, TNF dual-luciferase reporter clone, PMA-differentiated to macrophage-like cells
- Reagents: siRNA pool against human genes, 50 nM
- Timing: LPS for 4 h, given about 3 days after siRNA transfection
- Challenge: bacterial LPS (TLR4 ligand), 10 ng/ml
- Measured: 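Ratio of firefly to renilla light, scaled to the plate median and expressed as a robust z-score per replicate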
- Direction: TNF reporter robust z-score: higher = stronger TNF reporter response to LPS
- Call rule: 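Each well counts as active if its z-score is over 2.8 or under -1.5; controls are left without a call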

The opening 12 entries, to show the layout:
no.	gene symbol	TNF reporter robust z-score	call
1	BMF (Bcl2 modifying factor)	-0.18	inactive
2	BMF (Bcl2 modifying factor)	-0.64	inactive
3	BMF (Bcl2 modifying factor)	4.51	active
4	BMF (Bcl2 modifying factor)	3.39	active
5	DOCK3 (dedicator of cytokinesis 3)	-0.81	inactive
6	DOCK3 (dedicator of cytokinesis 3)	-1.06	inactive
7	DOCK3 (dedicator of cytokinesis 3)	-0.18	inactive
8	DOCK3 (dedicator of cytokinesis 3)	-0.16	inactive
9	CYP2D6	1.6	inactive
10	CYP2D6	0.43	inactive
11	CYP2D6	0.03	inactive
12	CYP2D6	1.05	inactive

The list itself, repeating the preview:
no.	gene symbol	TNF reporter robust z-score	call
1	BMF (Bcl2 modifying factor)	-0.18	inactive
2	BMF (Bcl2 modifying factor)	-0.64	inactive
3	BMF (Bcl2 modifying factor)	4.51	active
4	BMF (Bcl2 modifying factor)	3.39	active
5	DOCK3 (dedicator of cytokinesis 3)	-0.81	inactive
6	DOCK3 (dedicator of cytokinesis 3)	-1.06	inactive
7	DOCK3 (dedicator of cytokinesis 3)	-0.18	inactive
8	DOCK3 (dedicator of cytokinesis 3)	-0.16	inactive
9	CYP2D6	1.6	inactive
10	CYP2D6	0.43	inactive
11	CYP2D6	0.03	inactive
12	CYP2D6	1.05	inactive
13	HCLS1 (hematopoietic cell-specific Lyn substrate 1)	-0.92	inactive
14	HCLS1 (hematopoietic cell-specific Lyn substrate 1)	-0.43	inactive
15	HCLS1 (hematopoietic cell-specific Lyn substrate 1)	-1.32	inactive
16	HCLS1 (hematopoietic cell-specific Lyn substrate 1)	-1.73	active
17	LURAP1L (leucine rich adaptor protein 1 like)	0.48	inactive
18	LURAP1L (leucine rich adaptor protein 1 like)	-0.37	inactive
19	LURAP1L (leucine rich adaptor protein 1 like)	0.49	inactive
20	LURAP1L (leucine rich adaptor protein 1 like)	-0.15	inactive
21	ART5 (ADP-ribosyltransferase 5)	1.55	inactive
22	ART5 (ADP-ribosyltransferase 5)	4.6	active
23	ART5 (ADP-ribosyltransferase 5)	0.6	inactive
24	ART5 (ADP-ribosyltransferase 5)	1.29	inactive
25	NBPF8 (NBPF member 8)	0.19	inactive
26	NBPF8 (NBPF member 8)	0.74	inactive
27	NBPF8 (NBPF member 8)	-0.16	inactive
28	NBPF8 (NBPF member 8)	0.11	inactive
29	CSTF1 (cleavage stimulation factor subunit 1)	2.26	inactive
30	CSTF1 (cleavage stimulation factor subunit 1)	1.49	inactive
31	CSTF1 (cleavage stimulation factor subunit 1)	0.65	inactive
32	CSTF1 (cleavage stimulation factor subunit 1)	3.59	active
33	ARR3 (arrestin 3)	1.71	inactive
34	ARR3 (arrestin 3)	1.54	inactive
35	ARR3 (arrestin 3)	1.8	inactive
36	ARR3 (arrestin 3)	0.31	inactive
37	GALP (galanin like peptide)	-0.47	inactive
38	GALP (galanin like peptide)	-0.36	inactive
39	GALP (galanin like peptide)	0.35	inactive
40	SLC35E4	-0.16	inactive
41	SLC35E4	-0.38	inactive
42	SLC35E4	0.5	inactive
43	SLC35E4	1	inactive
44	HSPBP1 (HSPA (Hsp70) binding protein 1)	0.44	inactive
45	HSPBP1 (HSPA (Hsp70) binding protein 1)	0.66	inactive
46	HSPBP1 (HSPA (Hsp70) binding protein 1)	0.58	inactive
47	HSPBP1 (HSPA (Hsp70) binding protein 1)	2.03	inactive
48	TRAPPC6B (trafficking protein particle complex subunit 6B)	0.52	inactive
49	TRAPPC6B (trafficking protein particle complex subunit 6B)	1.03	inactive
50	TRAPPC6B (trafficking protein particle complex subunit 6B)	-0.45	inactive
51	TRAPPC6B (trafficking protein particle complex subunit 6B)	-0.59	inactive
52	BRI3 (brain protein I3)	-1.42	inactive
53	BRI3 (brain protein I3)	-1.27	inactive
54	BRI3 (brain protein I3)	-1	inactive
55	HECTD3 (HECT domain E3 ubiquitin protein ligase 3)	-0.3	inactive
56	HECTD3 (HECT domain E3 ubiquitin protein ligase 3)	-0.18	inactive
57	HECTD3 (HECT domain E3 ubiquitin protein ligase 3)	0.32	inactive
58	HECTD3 (HECT domain E3 ubiquitin protein ligase 3)	-0.45	inactive
59	EEF2K (eukaryotic elongation factor 2 kinase)	-1.29	inactive
60	EEF2K (eukaryotic elongation factor 2 kinase)	-0.93	inactive
61	EEF2K (eukaryotic elongation factor 2 kinase)	-0.89	inactive
62	EEF2K (eukaryotic elongation factor 2 kinase)	-1.14	inactive
63	FTSJ1 (FtsJ RNA 2'-O-methyltransferase 1)	0.09	inactive
64	FTSJ1 (FtsJ RNA 2'-O-methyltransferase 1)	-0.42	inactive
65	FTSJ1 (FtsJ RNA 2'-O-methyltransferase 1)	-0.85	inactive
66	FTSJ1 (FtsJ RNA 2'-O-methyltransferase 1)	-0.63	inactive
67	MTMR14 (myotubularin related protein 14)	-0.06	inactive
68	MTMR14 (myotubularin related protein 14)	-1.04	inactive
69	MTMR14 (myotubularin related protein 14)	0	inactive
70	MTMR14 (myotubularin related protein 14)	-0.01	inactive
71	SDR16C5 (short chain dehydrogenase/reductase family 16C member 5)	0.24	inactive
72	SDR16C5 (short chain dehydrogenase/reductase family 16C member 5)	-0.06	inactive
73	SDR16C5 (short chain dehydrogenase/reductase family 16C member 5)	-0.27	inactive
74	SDR16C5 (short chain dehydrogenase/reductase family 16C member 5)	0.81	inactive
75	ROM1 (retinal outer segment membrane protein 1)	0.33	inactive
76	ROM1 (retinal outer segment membrane protein 1)	0.1	inactive
77	ROM1 (retinal outer segment membrane protein 1)	-0.39	inactive
78	ROM1 (retinal outer segment membrane protein 1)	-0.77	inactive
79	ERH (ERH mRNA splicing and mitosis factor)	-1.53	active
80	ERH (ERH mRNA splicing and mitosis factor)	-1.4	inactive
81	ERH (ERH mRNA splicing and mitosis factor)	-1.73	active
82	ERH (ERH mRNA splicing and mitosis factor)	-0.73	inactive
83	KRTAP13-3 (keratin associated protein 13-3)	-1.36	inactive
84	KRTAP13-3 (keratin associated protein 13-3)	-1.02	inactive
85	KRTAP13-3 (keratin associated protein 13-3)	-1.26	inactive
86	KRTAP13-3 (keratin associated protein 13-3)	0.87	inactive
87	ADGRE1 (adhesion G protein-coupled receptor E1)	0.5	inactive
88	ADGRE1 (adhesion G protein-coupled receptor E1)	-0.06	inactive
89	ADGRE1 (adhesion G protein-coupled receptor E1)	0.42	inactive
90	ADGRE1 (adhesion G protein-coupled receptor E1)	0.08	inactive
91	MAGEB10 (MAGE family member B10)	-0.82	inactive
92	MAGEB10 (MAGE family member B10)	-0.39	inactive
93	MAGEB10 (MAGE family member B10)	-0.81	inactive
94	MAGEB10 (MAGE family member B10)	-0.56	inactive
95	LRRC66 (leucine rich repeat containing 66)	-0.29	inactive
96	LRRC66 (leucine rich repeat containing 66)	-0.53	inactive
97	LRRC66 (leucine rich repeat containing 66)	-0.39	inactive
98	LRRC66 (leucine rich repeat containing 66)	-0.71	inactive
99	BCL2L12 (BCL2 like 12)	-1.1	inactive
100	BCL2L12 (BCL2 like 12)	-0.84	inactive
101	BCL2L12 (BCL2 like 12)	-0.02	inactive
102	BCL2L12 (BCL2 like 12)	-0.39	inactive
103	ECPAS (Ecm29 proteasome adaptor and scaffold)	-0.91	inactive
104	ECPAS (Ecm29 proteasome adaptor and scaffold)	0.14	inactive
105	ECPAS (Ecm29 proteasome adaptor and scaffold)	-0.43	inactive
106	ECPAS (Ecm29 proteasome adaptor and scaffold)	0.61	inactive
107	DDX28 (DEAD-box helicase 28)	0.74	inactive
108	DDX28 (DEAD-box helicase 28)	0.98	inactive
109	DDX28 (DEAD-box helicase 28)	-0.55	inactive
110	DDX28 (DEAD-box helicase 28)	0.83	inactive
